We go through 1 molecule from patent US20250163164A1.

Sequences of proteins named here, by UniProt entry; tags and fusion partners are left off. Residues count along the entry.
UniProt Q14627, residues 27-380: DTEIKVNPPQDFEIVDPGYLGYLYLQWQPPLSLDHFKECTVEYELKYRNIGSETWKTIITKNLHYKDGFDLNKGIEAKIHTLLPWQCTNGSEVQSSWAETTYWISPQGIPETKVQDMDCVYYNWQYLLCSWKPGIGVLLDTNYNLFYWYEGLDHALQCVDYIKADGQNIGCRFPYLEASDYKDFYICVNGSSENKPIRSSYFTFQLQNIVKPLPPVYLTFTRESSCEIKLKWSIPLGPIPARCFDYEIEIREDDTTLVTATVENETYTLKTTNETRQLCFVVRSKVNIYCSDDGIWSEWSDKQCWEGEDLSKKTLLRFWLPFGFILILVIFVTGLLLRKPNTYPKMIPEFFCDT

For this experiment, the target named is human interleukin 13 receptor subunit alpha 2 (IL-13RA2) (human) (UniProt Q14627). Put plainly: FACS on A375 cells.

These are yes or no findings as the source states them, for the method shown. Some results given as binding are weak or reduced against the parent protein; the word gives no strength.

B1: 42E3C4 (antibody, V domains shown)
VH: EVKLVESGGGLVRPGGSLKISCAASGFTFSTYGMSWVRQTPEKRLEWVATISGGGSYTYYPDSVKGRFTISRDNAKNNLYLQMSSLRSEDTALYYCARRDLRSAMDYWGQGTSVTVSS
VL: DIVMTQSQKFMSTSVGDRVSVTCKASQNVDINVAWYQQKPGQSPKALIYSASFRYSGVPDRFTGSGSGTDFTLTISNVQSEDLAEYFCQQYNSYPLTFGGGTKLEIK
Regarding B1, the binding result is reported as “binds”.
